## Cell number after 72 h of treatment

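The test systems are human melanoma cell lines, treated with two drugs together for 72 h and then stained and imaged. Each value is the count of nuclei relative to DMSO-treated wells, in %, so that 100 equals the control. Concentrations were fixed for each drug; these are the lower of two levels, a fifth of the higher. These are primary screening values without error estimates.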 An unselected part of the screen is shown.

Compounds and concentrations:
T0901317 (1.4 µM): O=S(=O)(c1ccccc1)N(CC(F)(F)F)c1ccc(C(O)(C(F)(F)F)C(F)(F)F)cc1
A-769662 (2 µM): N#Cc1c(O)c2c(-c3ccc(-c4ccccc4O)cc3)csc2[nH]c1=O
BI-D1870 (0.2 µM): CC(C)CCN1c2nc(Nc3cc(F)c(O)c(F)c3)ncc2N(C)C(=O)C1C (stereo not shown)
FH535 (1 µM): Cc1cc([N+](=O)[O-])ccc1NS(=O)(=O)c1cc(Cl)ccc1Cl

| # | Pair | A375 |
|---|---|---|
| 1 | T0901317 + FH535 | 78.2 |
| 2 | BI-D1870 + A-769662 | 89.9 |

Values as published with doi:10.1371/journal.pone.0140310, rounded.